These are yes or no findings as the source states them, for the method shown. For some of these results: A result given as binding can be weak or reduced; the word gives no strength. For some of these results: Tags and fused reporters may be left off the sequences shown.

Assay [1] addresses T1, C-terminal RRM domain of Pla1 (Pla1RRM, residues 352-566), purified (S. pombe) (UniProt Q10295).
T1 sequence: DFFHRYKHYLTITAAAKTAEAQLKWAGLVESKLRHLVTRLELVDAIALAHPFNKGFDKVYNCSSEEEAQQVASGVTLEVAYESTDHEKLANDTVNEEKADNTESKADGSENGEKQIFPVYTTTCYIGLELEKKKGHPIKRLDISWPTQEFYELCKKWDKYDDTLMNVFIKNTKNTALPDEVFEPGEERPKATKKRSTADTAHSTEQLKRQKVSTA
Put plainly: ITC; competition: Red1_(288-345) titrated into Pla1RRM pre-incubated with a 1.1-fold molar excess of Iss1_(30-76); 25 °C, 20 mM HEPES pH 7.5, 150 mM NaCl, 2 mM BME; both purified.

The target of assay [2] is T1, C-terminal RRM domain of Pla1 (Pla1RRM, residues 352-566), purified (S. pombe). The assay can be described thus: condition: only with Pla1RRM pre-incubated with a 1.1-fold molar excess of Red1_(288-345); ITC; competition: Iss1 titrated into Pla1RRM pre-incubated with a 1.1-fold molar excess of Red1_(288-345); 25 °C, 20 mM HEPES pH 7.5, 150 mM NaCl, 2 mM BME; both purified.

Assay [3] concerns the target Msi2 (1-474) fused to the Gal4 DNA-binding domain (S. pombe). Put plainly: two-hybrid; Msi2 fused to the Gal4 DNA-binding domain (pGBKT7), MTREC components fused to the Gal4 activation domain (pGADT7); strain PJ69-4A; growth on -Leu-Trp-His and -Leu-Trp-Ade, 30 °C, 3 days.
The target in assay [4] is Msi2 fused to the Gal4 DNA binding domain (S. pombe). Put plainly: two-hybrid; Gal4 DNA binding domain (pGBKT7) and activation domain (pGADT7) fusions co-transformed into PJ69-4A; 10-fold serial dilutions on SDC-Leu-Trp, -His (weak) and -Ade (strong), 30 °C, 3 days.

With “Iss1 residues 30-76, purified (S. pombe) (domain or fragment)”, the binding entry is on record as “binds” in assay [1] and “no binding” in assay [2].

B1: Ars2 (1-609) fused to the Gal4 activation domain (protein, UniProt O94326 1-609)
chain: MSEVHQESEVEYSRWKRERSPERSQRRSQSPPGEQSAYHRERSPLRKRGNYYDDRTRASGPYPTFTKPLIDPYTQTNAVSYERFIRWYSKENHISATTEDLYNSLHGTYNNYKQDLYARTARSFVESHCDEAWFEDSYWVDESQGRVLEVSENEKSYRRALYDKFMDRLDAGYYDDFQLPTAEDVIEKPSIPDNDTDDSILPSNDPQLSKWNQDSRNDAMENTLLVSHVLPNISVAQIHNALDGISFVQHFSLSTINLIKNDERSLWVHFKAGTNMDGAKEAVDGIQLDSNFTIESENPKIPTHTHPIPIFEIASSEQTCKNLLEKLIRFIDRASTKYSLPNDAAQRIEDRLKTHASMKDDDDKPTNFHDIRLSDLYAEYLRQVATFDFWTSKEYESLIALLQDSPAGYSRKKFNPSKEVGQEENIWLSDLENNFACLLEPENVDIKAKGALPVEDFINNELDSVIMKEDEQKYRCHVGTCAKLFLGPEFVRKHINKKHKDWLDHIKKVAICLYGYVLDPCRAMDPKVVSTSYVSLQILNKPYVGFRNINANYTFPTTSYSRRNDEEITSGASSQKSYSRQEPMIHRREFYRTYQDLDAPNQEVPELDY
As for B1, the binding entry in assay [3] is recorded as “no binding”.

B2: Mmi1 fused to the Gal4 activation domain (protein, UniProt O74958 1-488)
chain: MSNTNFSTSRSSKSIPELPNLEALRSLWPPPSLNESGDTRSVWTTHTGEPVASSVLSTSGSNNFSSPLKRPAPESHDAPIGRRLMVDDPRLIKHGKYDFSRHCTDYGHSYEWPYFRSLRRESMLYHTSGSYPESQPPYSSYSTDAPHYYHAGSESSAYYDSRSRLHGIQPPPKRRTLSPPPRRLADPVVVGSSRYVEEEVYRRPPYTLASEVPSSASAYQAGYSSYPVRSSPQLSHEDTRHGIASSGSTRYPFVPANTRASHSPSLLEPYAHSLPSSVAPVGAYPEKSSYLLSNSSNDSASRKEKPKARASTPPPLNFSRASEHRNEKGERISMINPRVVLDENGISHRSRYFIMLCDNETAIAHAKKTSIWAVKKDSSKRISDAYKKASVYFIFVAQQTYNALGYAQVVSDLNSTELPFWSDSSHAGGVRIKWIKTCNLFSAEISEIVSHMDHGSEARDGMEMMYDEGSRLCTLINYAIMKRIGRDR
For the molecule B2, the binding result in assay [4] is given as “binds”.

B3: Pla1 (1-566) fused to the Gal4 activation domain (protein, UniProt Q10295 1-566)
chain: MTTKQWGITPPISTAPATEQENALNTALINELKNQNLFESPAESEKRVKVLDELQQITTEFVKKVSLAKHMNEKMANEAGGKIFTYGSYRLGVYGPGSDIDTLVVVPKHVSRDNFFQDLEPMLREREEVTDLAAVPDAYVPIIKFKFLGISIDLIFARLSVPRVPRDLELSDNNLLKGVEERCVLSLNGTRVTDQILQLVPNRAVFKHALRAIKFWAQRRAIYANVVGFPGGVAWAMMVARICQLYPNAVSSVIVAKFFRILHQWNWPQPILLKPIEDGPLQVRIWNPKLYPSDKAHRMPIITPAYPSMCATHNITLSTQTIILREMVRAGEIADQIMVKALPWSALFQKHDFFHRYKHYLTITAAAKTAEAQLKWAGLVESKLRHLVTRLELVDAIALAHPFNKGFDKVYNCSSEEEAQQVASGVTLEVAYESTDHEKLANDTVNEEKADNTESKADGSENGEKQIFPVYTTTCYIGLELEKKKGHPIKRLDISWPTQEFYELCKKWDKYDDTLMNVFIKNTKNTALPDEVFEPGEERPKATKKRSTADTAHSTEQLKRQKVSTA
B3: the binding entry in assay [3] is listed as “no binding”.

B4: Red1 (1-712) fused to the Gal4 activation domain (protein, UniProt Q9UTR8 1-712)
chain: MSRSINLDELRKKALESKKKNEEDESNDSDKEDGEISEDDPVIDQSNSVPPMKVPTFPEQIPQLPPFDRFPGTNANFFPFGAPFMLPPALMFGPNTVPFFPQTASSNKTFSKRKRSSENSFNNRNKAKSSETSDSSNTSQSFKENRALKDTATSRPLALSSDTSYQKSEKAKSEKSPFLSTSKNSDANYSKTTNQKEAEKAVSQLFEVGVRFNDFIAEGIEPSVVHTLFLKLGLDSSSASSQGSLTLSADKAARSAKLRKIDSNLSDTHILPGDNGTPTVLPERKNLISLPLLKQDDWLSSSKPFGSSTPNVVIEFDSDDDGDDFSNSKIEQSNLEKPPSNSENGLTMSRSDYLALLRNKEEEIRRMTKLILRLESNKKPYRSPTSAADMKLPSVPVAAVDNKSKTHLDTFEKVVDLSSKADFVEAGPSISSSGASSSAATTNSDTTEQILEAPWLRKTEQIAVVHEEHPAQIKKSEIDILNNLIEKEEGELTKYQTLVKSKTEILTQLYTRKKQLLEQQGKGNVACLPKESDLSMDSITEVSAQADENSSQILSSKTSNAPNGTTETDFEDKVPLVDYISPFYRFKSYRFNQQFVERVPLKYRSLTYSNKIEPMKVFCKYETTGGVCNDDHCEASHFRDIKMTDDEIIQDLSRYIEGNDEIEKESYKSGLDIVMKNTDENTDFVDVATRIVEYHNLWKSERMTIPVAKVSI
Turning to B4, the binding result in assay [3] was “no binding”.

B5: Pab2 fused to the Gal4 activation domain (protein, UniProt O14327 1-166)
chain: MSDQDALDTQEKELLEMKERVAEMEAEAAKLRAMQEQLDNETEALRNDKESIDAQSVYVGNVDYSVTPEELQSHFASCGSVNRVTILCDKFTGHPKGFAYIEFSEPSLVPNALLLNGSMLHERPLKVTPKRTNVPGMSRGRGRGRGRGRGRGRGGYRGRARGFAPY
Take B5: the binding entry in assay [4] is “binds”.

The record behind these values is article PMC9922296, “Mechanistic insights into RNA surveillance by the canonical poly(A) polymerase Pla1 of the MTREC complex” (Nature Communications, 2023).
